Measurements: article PMC3064656
Results are given in words; binding and its absence hold for the method and conditions named. Binding seen in cells or lysates may run through a third protein. Some results given as binding are weak or reduced against the parent protein; the word gives no strength. For part of these data: Where a sequence is shown, tags or fusion partners need not be part of it.

Protein sequences, listed by entry. Tags and fused reporters are not part of them.
UniProt P70605: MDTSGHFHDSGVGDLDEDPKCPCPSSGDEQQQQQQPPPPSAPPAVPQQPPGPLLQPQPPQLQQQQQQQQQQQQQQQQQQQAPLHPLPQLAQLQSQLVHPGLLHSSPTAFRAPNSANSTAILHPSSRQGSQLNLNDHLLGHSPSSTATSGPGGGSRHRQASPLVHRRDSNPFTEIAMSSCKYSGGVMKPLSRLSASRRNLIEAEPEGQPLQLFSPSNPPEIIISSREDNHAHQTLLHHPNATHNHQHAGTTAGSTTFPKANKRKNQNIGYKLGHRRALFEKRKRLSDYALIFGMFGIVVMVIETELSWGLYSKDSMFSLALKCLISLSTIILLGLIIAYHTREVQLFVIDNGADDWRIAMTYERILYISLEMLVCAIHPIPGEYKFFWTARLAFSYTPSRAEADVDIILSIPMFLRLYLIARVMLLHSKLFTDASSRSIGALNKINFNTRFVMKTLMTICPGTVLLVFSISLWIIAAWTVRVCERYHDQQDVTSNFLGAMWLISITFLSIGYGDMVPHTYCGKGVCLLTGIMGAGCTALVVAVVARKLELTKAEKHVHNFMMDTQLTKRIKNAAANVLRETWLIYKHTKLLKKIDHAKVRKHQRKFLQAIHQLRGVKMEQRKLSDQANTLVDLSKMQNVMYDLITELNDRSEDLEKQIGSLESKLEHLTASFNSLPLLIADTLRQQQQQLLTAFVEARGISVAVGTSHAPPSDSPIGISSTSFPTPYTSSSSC
UniProt O08816: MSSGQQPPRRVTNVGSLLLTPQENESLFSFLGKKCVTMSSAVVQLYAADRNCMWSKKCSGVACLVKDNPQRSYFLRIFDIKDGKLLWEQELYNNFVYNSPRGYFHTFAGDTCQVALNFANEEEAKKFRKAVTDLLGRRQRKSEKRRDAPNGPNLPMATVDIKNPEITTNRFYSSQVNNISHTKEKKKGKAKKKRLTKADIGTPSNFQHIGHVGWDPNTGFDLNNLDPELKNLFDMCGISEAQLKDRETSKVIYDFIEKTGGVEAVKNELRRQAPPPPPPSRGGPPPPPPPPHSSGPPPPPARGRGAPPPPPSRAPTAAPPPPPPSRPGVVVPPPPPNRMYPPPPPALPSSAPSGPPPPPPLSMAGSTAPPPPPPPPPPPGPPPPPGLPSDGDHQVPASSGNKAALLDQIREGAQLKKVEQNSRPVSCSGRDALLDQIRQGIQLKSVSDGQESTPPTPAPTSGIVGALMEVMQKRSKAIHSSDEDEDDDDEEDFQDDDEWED

Experiments:
[1] = target: SK3 channel (rat (endogenous in rat brain)) (UniProt P70605); test: co-IP; magnetic beads loaded with SK3 channel antibodies; precipitate from rat brain; Abi-1 and nWASP detected in the precipitate
[2] = target: T1, Abi-1 SH3 domain fusion protein (UniProt Q9QZM5); test: co-IP; co-transfected COS7 cells, lysate; protein immobilized on µMACS Micro beads coupled with the specific antibodies
T1 sequence: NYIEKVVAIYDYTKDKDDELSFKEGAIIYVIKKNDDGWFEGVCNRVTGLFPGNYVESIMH

binding [1] | binding [2] | Substance
binds |  | neural Wiskott Aldrich Syndrome Protein (from UniProt O08816 1-501)
 | binds | full length SK3 channel protein (transfected) (from UniProt P70605 1-732)
binds |  | Abelson interacting protein 1 (from UniProt Q9QZM5 1-476)
